# Assay results reported in patent US20040185510A1 (priority 1996, published 2004).
# Non-standard residues stand in square brackets, D forms with d. No end group written: not given here. Nle = CCCC[C@H](N)C(=O)O
# Test: general procedure: Fmoc solid-phase peptide synthesis; Rink amide resin; dicyclohexyl-dicarbodiimide/hydroxybenzotriazole
# Conditions: whole synthesis, 214 nm
substance,measurement,value
[dY]GDY[Nle]GW[Nle]DF-NH2,purity (crude or final not stated),97.8%
